Laboratory results taken from paper doi:10.1101/2020.10.02.323576.

Biological target: RFP-RNF26 ΔRING
Experiment: co-IP

B1: endogenous UBE2J1 (enzyme, UniProt Q9Y385 1-318)
chain: METRYNLKSPAVKRLMKEAAELKDPTDHYHAQPLEDNLFEWHFTVRGPPDSDFDGGVYHGRIVLPPEYPMKPPSIILLTANGRFEVGKKICLSISGHHPETWQPSWSIRTALLAIIGFMPTKGEGAIGSLDYTPEERRALAKKSQDFCCEGCGSAMKDVLLPLKSGSDSSQADQEAKELARQISFKAEVNSSGKTISESDLNHSFSLTDLQDDIPTTFQGATASTSYGLQNSSAASFHQPTQPVAKNTSMSPRQRRAQQQSQRRLSTSPDVIQGHQPRDNHTDHGGSAVLIVILTLALAALIFRRIYLANEYIFDFEL
- binding: binds

No constants are given. Whether binding was seen depends on the method and setting. Binding seen in cells or lysates may run through a third protein. Binding can be weak; no strength is given.
